Data taken from patent US6274334A, “Monoclonal antibody, cell line and immunoassay for ractopamine” (The United States of America as represented by the …, priority 2000, dated 2001).
Counter-ions that a name gives are not always drawn.

System: 5G10 monoclonal antibody
Experiment: Intra- and inter-assay variation for determination of racemic ractopamine spiked into diluted (1:10) urine
Parameters: species or system mouse
[1] = inter-assay (n = 5), spike 1 ng/ml
[2] = inter-assay (n = 5), spike 5 ng/ml
[3] = inter-assay (n = 5), spike 10 ng/ml
[4] = inter-assay (n = 5), spike 20 ng/ml
[5] = intra-assay (n = 12), spike 1 ng/ml
[6] = intra-assay (n = 12), spike 5 ng/ml
[7] = intra-assay (n = 12), spike 10 ng/ml
[8] = intra-assay (n = 12), spike 20 ng/ml

Compound: CC(CCc1ccc(O)cc1)NCC(O)c1ccc(O)cc1 (racemic) [Ractopamine (racemic), (1R*, 3R*), (1R*, 3S*)-4-hydroxy-β-[[[3-(4-hydroxyphenyl)-1-methylpropyl]amino]methyl]-benzenemethanol hydrochloride]
- Found [1]: 1.1 ± 0.4 ng/mL
- Percentage recovery [1]: 110%
- Found [2]: 3.9 ± 0.6 ng/mL
- Percentage recovery [2]: 78%
- Found [3]: 9.5 ± 1.7 ng/mL
- Percentage recovery [3]: 95%
- Found [4]: 22.4 ± 5.6 ng/mL
- Percentage recovery [4]: 112%
- Found [5]: 1.2 ± 0.06 ng/mL
- Percentage recovery [5]: 120%
- Found [6]: 4.2 ± 0.2 ng/mL
- Percentage recovery [6]: 84%
- Found [7]: 10.4 ± 0.6 ng/mL
- Percentage recovery [7]: 104%
- Found [8]: 20.6 ± 0.7 ng/mL
- Percentage recovery [8]: 103%
